Measurements: PubChem BioAssay AID276 (DTP/NCI, 2004)
The list does not hold the whole screen: it is rich in T/C values a quarter to a half above the control, in often repeated tests (any T/C) and in doses without a T/C. Other doses and runs of a compound stand elsewhere. T/C gives the treated animals as a percentage of the vehicle group. Some doses have a count of surviving animals in place of a T/C: the source files T/C as zero there, which appears to mark a toxic dose or a test without result, not a measured value. Some doses without a T/C left all or most animals alive at the check, yet need not have been tolerated: survival well below the control is almost never listed, so the zero probably covers shortened survival too. Survivors were counted at the toxicity check, usually on the fifth day, unless a day is given; later deaths do not show. Schedule codes are those of the source, read here as Q, the interval in days (D) or hours (H), X, the number of doses. Where survival is the endpoint, this PubChem deposit counts one and a half times the control or more as active, and values a quarter to a half above the control carry no call in these data; other NCI protocols may use other cut-offs. Some T/C values carry the count of animals alive at the toxicity check (mostly the fifth day); where none is given, no animal had died by that day.

Test system: B6C3F1 mice, Lewis lung carcinoma iv, survival T/C
Assay: NCI In Vivo Anticancer Drug Screen. Data for tumor model Lewis Lung Carcinoma (intravenous) in B6C3F1 mice
Conditions: T/C endpoint: median survival time, schedule: Q01DX009 (ip), higher T/C = longer survival
How it was run: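 Mice carrying transplanted tumors received test compound; survival in the treated group was divided by that of the vehicle-treated control group to give the T/C value.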

[1] = dose: 400.0 mg/kg/injection, vehicle: saline
[2] = dose: 200.0 mg/kg/injection, vehicle: saline with Tween-80
[3] = dose: 100.0 mg/kg/injection, vehicle: saline with Tween-80
[4] = dose: 12.5 mg/kg/injection, vehicle: suspension in saline
[5] = dose: 400.0 mg/kg/injection, vehicle: saline with Tween-80
[6] = dose: 200.0 mg/kg/injection, vehicle: Klucel (hydroxypropylcellulose) (HPC)
[7] = dose: 50.0 mg/kg/injection, vehicle: suspension in saline
[8] = dose: 100.0 mg/kg/injection, vehicle: suspension in saline
[9] = dose: 40.0 mg/kg/injection, vehicle: saline
[10] = dose: 800.0 mg/kg/injection, vehicle: saline
[11] = dose: 200.0 mg/kg/injection, vehicle: saline
[12] = dose: 50.0 mg/kg/injection, vehicle: other

**Q.** `CN(C)[C@@H]1C(=O)C(C(N)=O)=C(O)[C@@]2(O)C(=O)C3=C(O)c4c(O)ccc(Cl)c4[C@@](C)(O)[C@H]3C[C@@H]12` was tested. Which survivor count [1] did it give?
**A.** 0 of 10

**Q.** Which survivor count [2] does the source give for `O=C1CN(Cc2ccc3c(c2)OCO3)NO1` here?
**A.** 10 of 10

**Q.** `c1ccc2c(c1)-c1ccccc1C1NC21` (stereo not given) was tested. Which survivor count (dose: 25.0 mg/kg/injection, vehicle: saline with Tween-80) did it give?
**A.** 10 of 10

**Q.** What about the survivor count (dose: 50.0 mg/kg/injection, vehicle: saline with Tween-80) of the same compound?
**A.** 7 of 10

**Q.** What about the survivor count [3] of the same compound?
**A.** 0 of 10

**Q.** With `O=C1NC(O)c2ccccc2O1` (stereo not given) as the compound, how does the survivor count [4] read?
**A.** 8 of 10

**Q.** What about the survivor count (dose: 400.0 mg/kg/injection, vehicle: suspension in saline) of the same compound?
**A.** 4 of 10

**Q.** For `O=S(=O)(N=N/C=C1\C=CC=CN1O)c1cccs1`, which survivor count [2] is on record?
**A.** 5 of 10

**Q.** And the survivor count [5]?
**A.** 0 of 10

**Q.** For `C=Cc1cnc([N+](=O)[O-])n1C`, which survivor count (dose: 400.0 mg/kg/injection, vehicle: Klucel (hydroxypropylcellulose) (HPC)) is on record?
**A.** 1 of 10

**Q.** How did the survivor count (dose: 100.0 mg/kg/injection, vehicle: Klucel (hydroxypropylcellulose) (HPC)) turn out when `CCN(C)N=Nc1ccc(C(N)=O)cc1` was run?
**A.** 10 of 10

**Q.** What about the survivor count [6] of the same compound?
**A.** 10 of 10

**Q.** For `CN(C)CCN1C(=O)c2cccc3cc([N+](=O)[O-])cc(c23)C1=O`, which survivor count (dose: 12.0 mg/kg/injection, vehicle: saline with Tween-80) is on record?
**A.** 9 of 10

**Q.** What about the survivor count (dose: 24.0 mg/kg/injection, vehicle: saline with Tween-80) of the same compound?
**A.** 2 of 10

**Q.** Which survivor count (dose: 500.0 micrograms/kg/injection, vehicle: saline) does the source give for `C/C=C(\C)c1cc(=O)c2c(C)cc3c(c2o1)C(=O)c1c(O)c(C2CC(C)(N(C)C)C(O)C(C)O2)cc(C2CC(N(C)C)C(O)C(C)O2)c1C3=O` (stereo not given) here?
**A.** 9 of 10

**Q.** What about the survivor count (dose: 1000.0 micrograms/kg/injection, vehicle: saline) of the same compound?
**A.** 10 of 10

**Q.** Which survivor count [5] does the source give for `c1ccc2sc(SSN3CC4CCC(CC4)C3)nc2c1` here?
**A.** 1 of 10

**Q.** Which results are given for `c1cc(-c2cc3ccc(C4=NCCN4)cc3[nH]2)ccc1C1=NCCN1`?
**A.** survivor count [7]: 0 of 10; survivor count [8]: 0 of 10

**Q.** Which results are given for `O=NN(CCF)C(=O)NC1CCC(=O)NC1=O` (stereo not given)?
**A.** T/C (dose: 5.0 mg/kg/injection, vehicle: saline): 128 % of control; survivor count [9]: 7 of 10 on day 9

**Q.** `CC(=O)Oc1c(C)[nH]ccc1=O` was tested. Which T/C [10] did it give?
**A.** 133 % of control [9 of 10 alive]

**Q.** For `CC[C@@]1(O)C(=O)OCc2c1cc1n(c2=O)Cc2cc3ccccc3nc2-1`, which T/C (dose: 3.0 mg/kg/injection, vehicle: saline with Tween-80) is on record?
**A.** 132 % of control

**Q.** Which results are given for `O=NN(CCF)C(=O)NCCO`?
**A.** T/C (dose: 2.5 mg/kg/injection, vehicle: saline): 131 % of control; survivor count (dose: 20.0 mg/kg/injection, vehicle: saline): 8 of 10 on day 9; survivor count [9]: 0 of 10 on day 9

**Q.** How did the survivor count (dose: 32.0 mg/kg/injection, vehicle: saline) turn out when `CC1=C(C)C(=O)O[C@@H]([C@](C)(O)[C@]2(O)CC[C@@]3(O)[C@@H]4C[C@H]5O[C@]56[C@@H](O)C=CC(=O)[C@]6(C)[C@H]4CC[C@]23C)C1` was run?
**A.** 9 of 10

**Q.** With `CCCCCCOC(CN(C)C)C(Cl)(Cl)Cl` (stereo not given) as the compound, how does the survivor count [5] read?
**A.** 5 of 10

**Q.** For `CCCCCCCC(=O)OCC(=O)[C@]1(O)Cc2c(O)c3c(c(O)c2[C@@H](OC2CC(N)C(O)C(C)O2)C1)C(=O)c1c(OC)cccc1C3=O` (stereo not given in full), which survivor count (dose: 4.0 mg/kg/injection, vehicle: saline) is on record?
**A.** 10 of 10

**Q.** And the survivor count (dose: 4.0 mg/kg/injection, vehicle: suspension in saline)?
**A.** 10 of 10

**Q.** What about the survivor count (dose: 8.0 mg/kg/injection, vehicle: saline) of the same compound?
**A.** 10 of 10

**Q.** What about the survivor count (dose: 8.0 mg/kg/injection, vehicle: suspension in saline) of the same compound?
**A.** 10 of 10

**Q.** How did the survivor count (dose: 120.0 mg/kg/injection, vehicle: Klucel (hydroxypropylcellulose) (HPC)) turn out when `C=C1C(=O)C2=CC1CCC(=O)C1(C)CCC(OC(C)=O)C(C)(C)C1CC2O` (stereo not given) was run?
**A.** 4 of 10

**Q.** For `[Cl][Pt+2][Cl].[NH-]CC1(C[NH-])CCC1`, which survivor count (dose: 6.25 mg/kg/injection, vehicle: suspension in saline) is on record?
**A.** 9 of 10

**Q.** What about the survivor count [4] of the same compound?
**A.** 0 of 10

**Q.** What about the survivor count (dose: 25.0 mg/kg/injection, vehicle: suspension in saline) of the same compound?
**A.** 3 of 10

**Q.** What about the survivor count [7] of the same compound?
**A.** 1 of 10

**Q.** How did the T/C (dose: 2.0 mg/kg/injection, vehicle: saline with Tween-80) turn out when `O=NN(CCCl)C(=O)NC1CCC(=O)NC1=O` (stereo not given) was run?
**A.** 139 % of control

**Q.** `N=c1ccn2c(n1)OC1C(O)C(CO)OC12` (stereo not given) was tested. Which T/C [11] did it give?
**A.** 136 % of control

**Q.** What about the T/C [1] of the same compound?
**A.** 133 % of control

**Q.** What about the T/C [10] of the same compound?
**A.** 136 % of control

**Q.** `CCOC(=O)C(N)CSC(=O)NC` (stereo not given) was tested. Which survivor count [1] did it give?
**A.** 8 of 10

**Q.** How did the survivor count [6] turn out when `CCNC(=O)[B-][N+](C)(C)C` was run?
**A.** 7 of 10

**Q.** For `C[C@@](O)(/C=C/[C@H]1CC=CC(=O)O1)[C@@H](C[C@@H](O)\C=C/C=C\C=C\CO)OP(=O)(O)O`, which T/C (dose: 25.0 mg/kg/injection, vehicle: other) is on record?
**A.** 130 % of control

**Q.** What about the T/C [12] of the same compound?
**A.** 125 % of control [9 of 10 alive]

**Q.** And the survivor count [12]?
**A.** 3 of 10

**Q.** How did the survivor count [11] turn out when `CC1(C)COCN1COCCOCN1COCC1(C)C` was run?
**A.** 0 of 10

**Q.** `C[C@]12C=CC(=O)C=C1CC[C@@H]1[C@@H]2[C@@H](O)C[C@@]2(C)[C@H]1CC[C@]2(O)C(=O)CO` was tested. Which survivor count (dose: 800.0 mg/kg/injection, vehicle: Klucel (hydroxypropylcellulose) (HPC)) did it give?
**A.** 9 of 10

**Q.** How did the survivor count [6] turn out when `CCCCN(CCCC)C(Cl)=Nc1ccccc1` was run?
**A.** 9 of 10

**Q.** What does the source list for `COc1cc2c[n+](C)c3c(c2cc1OC)Cc1cc2c(cc1-3)OCO2`?
**A.** survivor count [8]: 10 of 10; survivor count (dose: 200.0 mg/kg/injection, vehicle: suspension in saline): 2 of 10

**Q.** With `O=C(O)[C@H](Cc1ccccc1)N1C(=O)c2ccccc2C1=O` as the compound, how does the survivor count (dose: 50.0 mg/kg/injection, vehicle: DMSO) read?
**A.** 5 of 8

**Q.** What about the survivor count (dose: 100.0 mg/kg/injection, vehicle: DMSO) of the same compound?
**A.** 5 of 10

**Q.** And the survivor count (dose: 200.0 mg/kg/injection, vehicle: DMSO)?
**A.** 1 of 10

**Q.** What about the survivor count (dose: 400.0 mg/kg/injection, vehicle: DMSO) of the same compound?
**A.** 0 of 10

**Q.** And the survivor count (dose: 800.0 mg/kg/injection, vehicle: DMSO)?
**A.** 0 of 10

**Q.** How did the T/C (dose: 27.0 mg/kg/injection, vehicle: Klucel (hydroxypropylcellulose) (HPC)) turn out when `Nc1nncs1` was run?
**A.** 131 % of control

**Q.** And the survivor count (dose: 48.0 mg/kg/injection, vehicle: Klucel (hydroxypropylcellulose) (HPC))?
**A.** 10 of 10

**Q.** Which results are given for `NC(=S)N/N=C/c1ccc(OC(=O)COc2ccc(Cl)cc2)cn1`?
**A.** survivor count [2]: 10 of 10; T/C [5]: 137 % of control; survivor count [5]: 10 of 10

**Q.** Which survivor count (dose: 1600.0 mg/kg/injection, vehicle: saline) does the source give for `O=C(O)CP(=O)(O)O` here?
**A.** 5 of 10

**Q.** And the survivor count (dose: 3200.0 mg/kg/injection, vehicle: saline)?
**A.** 0 of 10

**Q.** For `CCOC(=O)Nc1cc2c(c(N)n1)N=C(c1ccccc1)CN2`, which survivor count (dose: 10.0 mg/kg/injection, vehicle: saline with Tween-80) is on record?
**A.** 1 of 10

**Q.** What about the survivor count (dose: 20.0 mg/kg/injection, vehicle: saline with Tween-80) of the same compound?
**A.** 0 of 10

**Q.** `CCCCn1cnc2c(=S)nc[nH]c21` was tested. Which survivor count (dose: 100.0 mg/kg/injection, vehicle: saline) did it give?
**A.** 10 of 10

**Q.** And the survivor count [11]?
**A.** 10 of 10

**Q.** What about the survivor count [1] of the same compound?
**A.** 10 of 10

**Q.** Which results are given for `CN(C)CCOc1ccc2c(c1)C/C(=C/c1ncc([N+](=O)[O-])n1C)C2=O`?
**A.** survivor count [3]: 5 of 5; survivor count [2]: 9 of 10
